Experimental data: PubChem BioAssay AID1259279 (Sanger Institute, 2017)
Test: 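Kinases that colorectal cancer cells need to survive, alone or with drugs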 (primary screen). Cells: LS180 human colorectal cancer cells. Reagent: siRNA pool against human genes. Treatment: anchor drug BYL719 at 1 µM, cetuximab at 5 µg/ml or trametinib at 10 nM, or DMSO vehicle only. Detection: 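Cell viability versus a non-targeting pool, as a fraction and as a robust z-score from replicate means, plus a synergy score for each of three drugs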. Scale: viability z-score, no drug: higher = more viable cells after knock-down; viability, no drug: higher = more viable cells; synergy score with BYL719 and synergy score with cetuximab and synergy score with trametinib: higher = stronger synthetic lethal synergy with drug. Active means: 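a knock-down is called active, meaning essential, if its viability z-score in vehicle alone falls below -3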. Calls: active = essential (knock-down alone cuts viability); inactive = no change without drug.
This is a random part of 794 reagents. In the full data, 11 (1.4%) got an active call. 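Calls reflect knock-down alone in the vehicle arm, not drug synergy.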 Entries without a mark were called inactive. Viability is capped at 1. The record does not give: the amount of reagent, the time to read-out.

target	viability z-score, no drug	viability, no drug (fraction)	synergy score with BYL719	synergy score with cetuximab	synergy score with trametinib
MAST4	0.86	1	-0.184	-0.166	-0.114
PKMYT1 (protein kinase, membrane associated tyrosine/threonine 1)	0.146	0.922	-0.0438	-0.0733	0.13
IKBKG	0.622	0.974	-0.043	0.0283	0.0858
GRK4 (G protein-coupled receptor kinase 4)	-0.922	0.806	-0.207	-0.191	-0.0326
MAP3K13 (mitogen-activated protein kinase kinase kinase 13)	0.271	0.936	-0.159	-0.109	-0.251
PIK3CG	-0.79	0.82	-0.0137	0.00669	-0.0379
MAP3K7 (mitogen-activated protein kinase kinase kinase 7)	0.86	1	-0.031	0.0327	0.0583
WHR1 (winged helix repair factor 1)	0.86	1	0.0286	-0.164	-0.0367
PRKAG1 (protein kinase AMP-activated non-catalytic subunit gamma 1)	0.86	1	-0.16	-0.0747	-0.118
EFNA5 (ephrin A5)	0.86	1	-0.182	-0.108	0.0816
PRKCE (protein kinase C epsilon)	0.86	1	0.00204	0.0197	0.0912
GRK1 (G protein-coupled receptor kinase 1)	0.385	0.948	-0.0866	-0.0427	-0.0898
AK3 (adenylate kinase 3)	0.86	1	0.0765	0.0147	0.0358
SCYL3 (SCY1 like pseudokinase 3)	0.86	1	-0.0175	-0.0146	-0.0822
PTK7 (protein tyrosine kinase 7 (inactive))	-1.75	0.715	0.072	0.129	0.028
VRK3 (VRK serine/threonine kinase 3)	0.86	1	-0.155	-0.166	-0.0573
TAOK2 (TAO kinase 2)	0.86	1	-0.049	-0.0439	-0.115
SYK (spleen associated tyrosine kinase)	-2.66	0.616	-0.0995	-0.0548	-0.0966
ULK2 (unc-51 like autophagy activating kinase 2)	0.618	0.974	-0.0521	-0.0843	-0.201
CEP290 (centrosomal protein 290)	0.86	1	-0.182	-0.105	-0.0679
CSNK1G2 (casein kinase 1 gamma 2)	0.86	1	-0.125	-0.0169	0.12
PANK4 (pantothenate kinase 4 (inactive))	-1.69	0.722	0.0161	-0.0545	0.0854
PIK3CD	0.86	1	-0.121	-0.166	-0.0334
ATP23	0.378	0.947	-0.00334	-0.12	0.05
STK32A (serine/threonine kinase 32A)	0.86	1	-0.0718	-0.161	-0.108
MAST3 (microtubule associated serine/threonine kinase 3)	0.86	1	0.0225	-0.00651	0.0795
PKN2 (protein kinase N2)	0.473	0.958	0.1	-0.123	0.187
CLK4 (CDC like kinase 4)	0.587	0.97	0.0102	-0.153	-0.0937
FBXW7 (F-box and WD repeat domain containing 7)	0.447	0.955	-0.034	-0.142	0.0408
STK40 (serine/threonine kinase 40)	-0.00278	0.906	-0.0873	-0.112	-0.15
SIK1 (salt inducible kinase 1)	0.86	1	-0.0949	-0.0284	0.0929
PDK1 (pyruvate dehydrogenase kinase 1)	0.86	1	-0.0213	0.0152	0.0351
FXN (frataxin)	0.628	0.975	-0.119	-0.187	-0.204
SMG1	-1.09	0.787	-0.074	-0.101	-0.0387
BMAL1 (basic helix-loop-helix ARNT like 1)	-0.137	0.891	0.0652	0.116	0.14
PIK3R4 (phosphoinositide-3-kinase regulatory subunit 4)	0.86	1	-0.0894	-0.0777	0.168
EIF2AK3 (eukaryotic translation initiation factor 2 alpha kinase 3)	0.397	0.949	-0.11	0.0159	-0.0629
MAPK3 (mitogen-activated protein kinase 3)	0.308	0.94	-0.0924	-0.0902	0.0844
CDK18 (cyclin dependent kinase 18)	-1.25	0.77	-0.127	-0.167	-0.151
SLK (STE20 like kinase)	0.86	1	-0.00983	-0.0209	-0.0489
PAK6 (p21 (RAC1) activated kinase 6)	0.86	1	0.0692	0.00834	-0.039
ITPKC (inositol-trisphosphate 3-kinase C)	0.86	1	-0.0177	0.0308	0.0881
MAP3K9 (mitogen-activated protein kinase kinase kinase 9)	-1.55	0.737	0.129	-0.097	-0.0755
DNMT3A (DNA methyltransferase 3 alpha)	-2.14	0.673	-0.141	-0.0266	-0.000349
MAP4K5 (mitogen-activated protein kinase kinase kinase kinase 5)	0.332	0.942	-0.16	0.0251	-0.114
PASK (PAS domain containing serine/threonine kinase)	0.299	0.939	-0.105	-0.0617	-0.18
PIP4K2C (phosphatidylinositol-5-phosphate 4-kinase type 2 gamma)	-1.13	0.783	-0.123	-0.0679	0.0223
PRKDC (protein kinase, DNA-activated, catalytic subunit)	-0.842	0.814	0.0297	0.0295	-0.0265
LRRK1 (leucine rich repeat kinase 1)	-0.755	0.824	-0.0597	-0.129	-0.117
DBF4 (DBF4-CDC7 kinase regulatory subunit)	0.86	1	-0.179	-0.156	0.0638

Entries listed so far whose gene name begins with G or g (2):
target	viability z-score, no drug	viability, no drug (fraction)	synergy score with BYL719	synergy score with cetuximab	synergy score with trametinib
GRK4 (G protein-coupled receptor kinase 4)	-0.922	0.806	-0.207	-0.191	-0.0326
GRK1 (G protein-coupled receptor kinase 1)	0.385	0.948	-0.0866	-0.0427	-0.0898
